According to patent US20140212427A1:
These are yes or no findings as the source states them, for the method shown. Some binding calls cover weakened binding; strength is not graded here.

By UniProt entry, the sequences of proteins in these tests, tags left out. Where a name states a change or a piece, a line headed by the entry shows the natural chain unless it says otherwise.
UniProt P27918: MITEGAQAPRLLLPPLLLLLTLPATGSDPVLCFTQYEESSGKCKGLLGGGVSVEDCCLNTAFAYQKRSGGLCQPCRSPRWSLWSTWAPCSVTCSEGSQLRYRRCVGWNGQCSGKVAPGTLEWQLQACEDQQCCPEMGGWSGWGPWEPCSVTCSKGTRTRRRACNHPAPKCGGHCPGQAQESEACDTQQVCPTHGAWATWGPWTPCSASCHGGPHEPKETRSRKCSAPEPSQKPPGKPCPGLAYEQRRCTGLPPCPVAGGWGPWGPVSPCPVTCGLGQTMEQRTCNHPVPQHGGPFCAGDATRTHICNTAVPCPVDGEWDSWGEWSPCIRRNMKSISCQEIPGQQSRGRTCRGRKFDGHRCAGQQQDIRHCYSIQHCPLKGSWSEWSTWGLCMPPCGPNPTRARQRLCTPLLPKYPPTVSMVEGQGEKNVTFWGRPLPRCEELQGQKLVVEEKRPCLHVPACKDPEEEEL

B1: mAb 19.1 (antibody, V domains shown)
VH: QVQLKQSGPGLVQPSQSLSISCTVSGFSLTTYGVHWVRQSPGKGLEWLGVIWSGGDTDYNASFISRLRINKDTSKSQVFFKMNSLQADDTAYYCARNKDYYTNYDFTMDYWGQGTSVTVSS
VL: NIMMTQSPSSLAVSAGEKVTMSCKSSQSVLYSSNQKNFLAWYQQKPGQSPKLLIYWASTRESGVPDRFTGSGSGTDFILTINSVQVEDQAVYYCHQYLSSYTFGGGTKLEIK
B2: chimeric 19.1 mAb (antibody, human IgG4 S228P, kappa, V domains shown)
VH: B1 VH
VL: NIMMTQSPSSLAVSAGEKVTMSCKSSQSVLYSSNQKNFLAWYQQKPGQSPKLLIYWASTRESGVPDRFTGSGSGTDFILTINSVQVEDQAVYYCHQYLSSYTFGGGTKLEIKT
B3: mAb 25 (antibody, V domains shown)
VH: QVQLLQSGAEVMKPGASVTLSCKAIGYTFIDYWIEWIKQRPGHGLEWIGEIFPGSGTINHNEKFKDKASFSAHSSSNTAYMQLSRLTSEDSAIYYCAREGLDYWGQGTTLTVSS
VL: QIVLTQSPAIMSASPGERVTMTCSASSSVSYIYWYQQKSGTSPKRWIFDTSTLASGVPTRFSGSGSGTSYSLTISSMETEDAATYYCQQWSRNPFTFGSGTKLEIK

What was measured:
[1] = biological target: human properdin deletion mutant dTSR0 (human) (UniProt P27918); experiment: ELISA with CHO cell lysates of properdin deletion mutants (FIG. 6)
[2] = biological target: human properdin (human) (UniProt P27918); experiment: ELISA of culture medium of transfected CHO clones on human properdin

Row | Binder | binding [1] | binding [2]
1 | B1 | binds | 
2 | B2 |  | binds
3 | B3 | binds | 
